Results on 27 targets are retold here after the supplement of paper PMC11732987, “Enantioselective OTUD7B fragment discovery through chemoproteomics screening and high-throughput optimisation” (Communications Chemistry, 2025).

Sequences of proteins named here, by UniProt entry; tags and fusion partners are left off. A change or cut given only in a name is not applied to a line headed by its entry. Residues count along the entry.
UniProt Q9NQS1, 313-335: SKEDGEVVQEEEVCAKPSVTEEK
UniProt P11274, 235-254: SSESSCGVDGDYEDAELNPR
UniProt Q8NBF6: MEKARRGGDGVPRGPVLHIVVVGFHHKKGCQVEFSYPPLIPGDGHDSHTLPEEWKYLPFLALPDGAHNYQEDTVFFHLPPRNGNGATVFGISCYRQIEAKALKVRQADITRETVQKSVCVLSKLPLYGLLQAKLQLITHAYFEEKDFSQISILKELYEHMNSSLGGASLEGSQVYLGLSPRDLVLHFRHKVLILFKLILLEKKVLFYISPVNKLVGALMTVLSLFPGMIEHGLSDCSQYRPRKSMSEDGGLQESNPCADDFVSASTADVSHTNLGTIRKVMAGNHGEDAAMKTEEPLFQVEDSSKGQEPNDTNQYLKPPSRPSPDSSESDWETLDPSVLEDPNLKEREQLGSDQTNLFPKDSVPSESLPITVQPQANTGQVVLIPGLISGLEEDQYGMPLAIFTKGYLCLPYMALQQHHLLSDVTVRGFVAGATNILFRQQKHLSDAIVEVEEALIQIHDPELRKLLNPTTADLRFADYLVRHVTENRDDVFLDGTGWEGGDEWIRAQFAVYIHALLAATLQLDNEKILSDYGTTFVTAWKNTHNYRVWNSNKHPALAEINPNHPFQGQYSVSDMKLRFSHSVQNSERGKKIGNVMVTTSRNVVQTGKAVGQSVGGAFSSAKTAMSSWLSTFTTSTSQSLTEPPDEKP
UniProt P0C7T5, 634-655: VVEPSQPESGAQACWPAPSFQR
UniProt Q6VMQ6, 101-124: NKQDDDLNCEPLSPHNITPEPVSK
UniProt P36894: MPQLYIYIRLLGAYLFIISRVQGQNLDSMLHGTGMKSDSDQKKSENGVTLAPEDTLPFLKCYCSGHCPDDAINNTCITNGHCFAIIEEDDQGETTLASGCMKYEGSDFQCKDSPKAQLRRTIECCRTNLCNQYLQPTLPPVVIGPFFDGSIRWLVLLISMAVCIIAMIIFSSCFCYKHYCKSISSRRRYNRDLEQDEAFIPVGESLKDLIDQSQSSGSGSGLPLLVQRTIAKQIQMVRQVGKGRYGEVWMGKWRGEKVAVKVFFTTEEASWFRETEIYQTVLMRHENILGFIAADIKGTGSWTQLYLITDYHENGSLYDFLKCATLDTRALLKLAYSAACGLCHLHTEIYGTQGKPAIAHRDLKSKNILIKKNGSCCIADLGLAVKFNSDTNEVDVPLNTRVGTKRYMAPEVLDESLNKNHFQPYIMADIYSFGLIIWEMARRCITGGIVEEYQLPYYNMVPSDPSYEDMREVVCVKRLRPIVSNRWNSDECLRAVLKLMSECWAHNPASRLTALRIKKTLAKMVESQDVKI
UniProt Q8IZT6: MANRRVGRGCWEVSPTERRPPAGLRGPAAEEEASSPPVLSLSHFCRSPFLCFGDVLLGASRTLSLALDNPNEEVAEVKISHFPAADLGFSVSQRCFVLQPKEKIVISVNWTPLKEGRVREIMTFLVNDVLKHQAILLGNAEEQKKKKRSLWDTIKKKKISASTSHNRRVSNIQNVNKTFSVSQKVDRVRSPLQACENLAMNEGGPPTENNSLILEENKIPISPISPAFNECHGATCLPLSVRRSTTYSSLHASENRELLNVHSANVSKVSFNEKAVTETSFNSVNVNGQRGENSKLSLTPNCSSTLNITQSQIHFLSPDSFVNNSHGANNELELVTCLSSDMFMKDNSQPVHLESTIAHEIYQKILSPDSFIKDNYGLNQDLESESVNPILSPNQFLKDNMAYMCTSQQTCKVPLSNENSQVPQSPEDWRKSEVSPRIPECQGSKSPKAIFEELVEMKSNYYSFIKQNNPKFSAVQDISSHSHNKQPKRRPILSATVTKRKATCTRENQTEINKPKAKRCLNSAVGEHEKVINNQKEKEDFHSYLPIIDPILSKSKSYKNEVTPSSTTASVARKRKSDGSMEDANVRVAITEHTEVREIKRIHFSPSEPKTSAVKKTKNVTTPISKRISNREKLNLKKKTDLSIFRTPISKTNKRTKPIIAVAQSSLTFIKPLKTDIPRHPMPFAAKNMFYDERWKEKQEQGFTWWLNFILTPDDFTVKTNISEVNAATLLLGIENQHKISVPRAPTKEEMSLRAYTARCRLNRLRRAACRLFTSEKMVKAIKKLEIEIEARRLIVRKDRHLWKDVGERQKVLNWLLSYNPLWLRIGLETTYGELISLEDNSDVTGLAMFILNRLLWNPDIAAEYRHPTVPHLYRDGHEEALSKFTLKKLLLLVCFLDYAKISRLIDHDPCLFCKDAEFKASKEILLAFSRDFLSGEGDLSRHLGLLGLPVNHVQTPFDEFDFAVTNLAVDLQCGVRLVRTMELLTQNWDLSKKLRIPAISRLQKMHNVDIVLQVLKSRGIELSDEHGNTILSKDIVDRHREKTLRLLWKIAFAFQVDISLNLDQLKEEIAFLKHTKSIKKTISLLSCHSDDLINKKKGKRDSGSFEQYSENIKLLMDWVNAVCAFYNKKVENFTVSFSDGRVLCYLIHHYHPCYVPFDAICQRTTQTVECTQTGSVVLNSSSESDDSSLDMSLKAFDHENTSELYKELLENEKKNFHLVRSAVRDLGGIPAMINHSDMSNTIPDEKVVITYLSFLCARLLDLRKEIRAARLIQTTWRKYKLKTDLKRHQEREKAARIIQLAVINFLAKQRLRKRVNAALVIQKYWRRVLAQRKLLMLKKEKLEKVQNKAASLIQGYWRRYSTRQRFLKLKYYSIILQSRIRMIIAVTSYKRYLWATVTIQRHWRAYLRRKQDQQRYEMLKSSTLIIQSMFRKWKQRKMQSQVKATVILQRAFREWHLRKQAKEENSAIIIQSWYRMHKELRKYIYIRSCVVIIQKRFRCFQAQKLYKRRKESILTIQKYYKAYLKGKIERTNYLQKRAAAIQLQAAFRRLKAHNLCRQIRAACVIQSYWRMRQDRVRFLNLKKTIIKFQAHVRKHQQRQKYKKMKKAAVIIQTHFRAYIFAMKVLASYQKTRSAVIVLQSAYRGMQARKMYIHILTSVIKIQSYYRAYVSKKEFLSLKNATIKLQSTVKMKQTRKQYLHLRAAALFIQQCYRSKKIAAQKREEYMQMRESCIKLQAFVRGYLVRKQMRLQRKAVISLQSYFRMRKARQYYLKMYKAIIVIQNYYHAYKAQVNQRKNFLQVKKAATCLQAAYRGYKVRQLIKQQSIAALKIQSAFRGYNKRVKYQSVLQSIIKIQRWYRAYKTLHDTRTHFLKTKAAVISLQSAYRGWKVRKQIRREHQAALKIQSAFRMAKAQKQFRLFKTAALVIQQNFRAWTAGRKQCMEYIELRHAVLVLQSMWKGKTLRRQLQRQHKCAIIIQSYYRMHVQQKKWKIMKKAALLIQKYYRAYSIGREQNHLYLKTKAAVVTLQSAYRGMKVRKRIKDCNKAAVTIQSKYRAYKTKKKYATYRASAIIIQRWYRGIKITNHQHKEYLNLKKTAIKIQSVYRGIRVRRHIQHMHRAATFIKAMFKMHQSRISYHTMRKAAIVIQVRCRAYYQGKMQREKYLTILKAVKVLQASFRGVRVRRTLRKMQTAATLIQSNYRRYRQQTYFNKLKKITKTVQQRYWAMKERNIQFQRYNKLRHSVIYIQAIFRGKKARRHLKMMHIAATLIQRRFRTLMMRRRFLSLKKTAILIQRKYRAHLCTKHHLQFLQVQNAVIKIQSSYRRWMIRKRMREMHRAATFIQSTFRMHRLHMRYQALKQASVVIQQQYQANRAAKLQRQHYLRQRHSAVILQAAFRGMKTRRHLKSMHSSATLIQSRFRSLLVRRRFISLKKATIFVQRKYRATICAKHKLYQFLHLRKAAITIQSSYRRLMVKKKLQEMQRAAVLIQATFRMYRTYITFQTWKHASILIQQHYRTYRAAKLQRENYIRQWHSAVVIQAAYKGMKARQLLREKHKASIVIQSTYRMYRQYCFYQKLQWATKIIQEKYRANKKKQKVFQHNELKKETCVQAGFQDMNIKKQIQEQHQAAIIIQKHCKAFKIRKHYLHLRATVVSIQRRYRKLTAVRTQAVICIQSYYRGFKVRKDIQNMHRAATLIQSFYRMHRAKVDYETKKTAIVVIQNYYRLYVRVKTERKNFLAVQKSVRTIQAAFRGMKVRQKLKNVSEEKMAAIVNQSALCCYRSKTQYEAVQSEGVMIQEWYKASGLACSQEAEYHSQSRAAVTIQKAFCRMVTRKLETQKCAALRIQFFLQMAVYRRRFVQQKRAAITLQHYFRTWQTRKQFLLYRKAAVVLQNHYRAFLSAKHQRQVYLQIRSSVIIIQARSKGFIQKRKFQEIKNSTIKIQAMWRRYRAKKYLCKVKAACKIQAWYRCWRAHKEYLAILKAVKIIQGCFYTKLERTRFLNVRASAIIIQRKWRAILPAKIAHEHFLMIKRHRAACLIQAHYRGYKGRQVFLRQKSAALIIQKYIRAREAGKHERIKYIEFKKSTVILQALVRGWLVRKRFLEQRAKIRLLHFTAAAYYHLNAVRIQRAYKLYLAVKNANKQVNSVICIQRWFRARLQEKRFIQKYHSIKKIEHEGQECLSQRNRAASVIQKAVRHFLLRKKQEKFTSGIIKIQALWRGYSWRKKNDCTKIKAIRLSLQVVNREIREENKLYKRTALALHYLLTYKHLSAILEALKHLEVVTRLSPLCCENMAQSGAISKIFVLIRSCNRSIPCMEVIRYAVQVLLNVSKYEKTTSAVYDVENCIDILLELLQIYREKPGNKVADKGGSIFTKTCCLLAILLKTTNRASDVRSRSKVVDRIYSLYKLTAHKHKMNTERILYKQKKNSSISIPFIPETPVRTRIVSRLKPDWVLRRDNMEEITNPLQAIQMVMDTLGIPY
UniProt Q02338: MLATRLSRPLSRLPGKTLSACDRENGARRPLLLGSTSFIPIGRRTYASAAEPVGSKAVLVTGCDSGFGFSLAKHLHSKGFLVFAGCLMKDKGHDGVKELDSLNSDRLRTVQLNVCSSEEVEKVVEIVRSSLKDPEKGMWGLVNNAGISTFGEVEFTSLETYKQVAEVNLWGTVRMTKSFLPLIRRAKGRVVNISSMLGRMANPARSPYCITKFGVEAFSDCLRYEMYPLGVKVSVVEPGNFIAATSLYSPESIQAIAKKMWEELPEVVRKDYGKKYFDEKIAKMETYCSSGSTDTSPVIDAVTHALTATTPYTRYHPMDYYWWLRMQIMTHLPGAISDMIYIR
UniProt Q8WY36, 574-601: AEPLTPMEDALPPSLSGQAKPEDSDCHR
UniProt Q9UHR4: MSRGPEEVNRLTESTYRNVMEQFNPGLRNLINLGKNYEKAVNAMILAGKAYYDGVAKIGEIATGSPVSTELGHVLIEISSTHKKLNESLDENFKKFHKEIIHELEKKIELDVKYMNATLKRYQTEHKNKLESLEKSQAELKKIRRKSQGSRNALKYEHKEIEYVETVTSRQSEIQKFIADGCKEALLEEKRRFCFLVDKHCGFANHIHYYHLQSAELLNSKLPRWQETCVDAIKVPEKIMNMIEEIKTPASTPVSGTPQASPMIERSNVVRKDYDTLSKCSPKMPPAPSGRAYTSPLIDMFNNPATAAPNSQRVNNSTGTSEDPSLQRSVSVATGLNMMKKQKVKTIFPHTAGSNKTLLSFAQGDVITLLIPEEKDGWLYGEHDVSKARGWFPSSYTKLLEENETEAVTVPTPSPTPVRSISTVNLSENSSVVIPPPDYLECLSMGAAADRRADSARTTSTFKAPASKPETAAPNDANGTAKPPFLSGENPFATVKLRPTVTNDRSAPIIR
UniProt P61421: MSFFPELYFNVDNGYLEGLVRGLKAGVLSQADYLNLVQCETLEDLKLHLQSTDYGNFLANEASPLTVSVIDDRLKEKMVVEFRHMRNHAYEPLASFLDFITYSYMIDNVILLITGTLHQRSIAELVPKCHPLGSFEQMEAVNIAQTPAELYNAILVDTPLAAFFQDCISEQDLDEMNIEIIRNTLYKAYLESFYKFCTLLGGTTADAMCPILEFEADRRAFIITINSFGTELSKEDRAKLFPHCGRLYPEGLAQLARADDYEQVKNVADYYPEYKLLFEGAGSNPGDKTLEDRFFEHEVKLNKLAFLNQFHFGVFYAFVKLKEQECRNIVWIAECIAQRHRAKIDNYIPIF
UniProt Q9UI12, whole entry, looked up: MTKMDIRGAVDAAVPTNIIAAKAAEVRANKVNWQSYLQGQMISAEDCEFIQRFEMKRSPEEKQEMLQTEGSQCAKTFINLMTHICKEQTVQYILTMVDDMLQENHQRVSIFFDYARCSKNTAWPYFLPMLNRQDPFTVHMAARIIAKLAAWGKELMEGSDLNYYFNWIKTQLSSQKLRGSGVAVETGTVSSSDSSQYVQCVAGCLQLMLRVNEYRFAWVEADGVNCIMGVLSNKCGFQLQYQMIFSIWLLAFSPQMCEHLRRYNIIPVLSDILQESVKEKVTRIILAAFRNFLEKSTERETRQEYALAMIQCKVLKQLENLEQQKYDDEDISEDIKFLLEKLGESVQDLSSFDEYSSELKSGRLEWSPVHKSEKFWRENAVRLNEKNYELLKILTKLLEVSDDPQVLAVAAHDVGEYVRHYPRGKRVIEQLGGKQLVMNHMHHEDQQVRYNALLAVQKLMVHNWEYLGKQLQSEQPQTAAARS

The other results are listed elsewhere or left out. The data scatter; read single values as rough.

Compound in this experiment: ClCC(=O)N[C@H]1CCCc2ccccc12
As to the kind of experiment: log2 mean competition ratio of IA-DTB cysteine labelling (DMSO/compound) (log2 ratio); higher = stronger cysteine engagement by compound. The note with it: 200 µM; treatment time: 4 h; cell line lysate: HEK293T. How it is done:
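IA-DTB competitive cysteine chemoproteomics in HEK293T RIPA lysate. Lysates were treated with compound 29 or 30 at 50 or 200 µM for 4 h, then IA-DTB (500 µM, 1 h), trypsin-digested, NeutrAvidin-enriched and analysed by diaPASEF. Competition ratio = intensity DMSO / intensity compound (n=4 treated, n=64 DMSO); binding: mean log2 CR ≥ 1 and p ≤ 0.05 plus QC filters. Target is the cysteine site.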
With AVEN C326 (UniProt Q9NQS1), the “log2 mean competition ratio” value is -0.348.
The same measure for BCR C240 (UniProt P11274): 0.228; for AVL9 C119 (UniProt Q8NBF6): 0.05.
The same measure for ATXN1L C647 (UniProt P0C7T5): 0.659; for ATF7IP C109 (UniProt Q6VMQ6): 0.107.
In the case of BAZ2A C726 (UniProt Q9UIF9) it was -0.321; in that of ASXL2 C299 (UniProt Q76L83), -0.229; in that of ATG2B C1750 (UniProt Q96BY7), -0.0203.
Consider BIRC6 C3404, for which the “log2 mean competition ratio” value was 0.0269.
In the case of BMPR1A C503 (UniProt P36894) it was -0.11; in that of ASPM C2805 (UniProt Q8IZT6), -0.146; in that of ATAD5 C433 (UniProt Q96QE3), -0.169.
The same measure for BDH1 C221 (UniProt Q02338): 0.187; for ATP13A1 C345 (UniProt Q9HD20): -0.259.
In the case of ASNS C158 (UniProt P08243) it was -0.517.
Regarding BMS1 C101 (UniProt Q14692), the “log2 mean competition ratio” value came out at 0.0542.
In the case of ATG2B C739 (UniProt Q96BY7), the “log2 mean competition ratio” value came to 0.0482.
In the case of ATF7IP C955 (UniProt Q6VMQ6) it was 0.159; in that of BBX C599 (UniProt Q8WY36), -0.0493; in that of ATXN2 C892, -0.307.
The same measure for BAIAP2L1 C182 (UniProt Q9UHR4): 0.0474; for BBX C606 (UniProt Q8WY36): -0.0245; for ATP6V0D1 C335 (UniProt P61421): -0.204.
With ATP6V1H C312 (UniProt Q9UI12), the “log2 mean competition ratio” value is 0.222.
In the case of ATG2A C1870 (UniProt Q2TAZ0) it was 0.271; in that of ATP2B4 C632 (UniProt P23634), 0.113; in that of BAZ1A C105 (UniProt Q9NRL2), -0.412.
